{"source": "patent US20120309699A1", "about": "“COMPOUNDS HAVING ANTI-INFLAMMATORY ACTIVITY” (Consejo Superior de Investigaciones Cientificas (CSIC), priority 2009, published 2012)", "origin": "cited, not measured here", "key": {"[1]": {"conditions": "in vivo; cited from earlier work"}, "patients": {"tested_on": "patients", "conditions": "human, in vivo; cited from earlier work"}}, "note": "Some of these results come from one statement about several compounds together."}
{"smiles": "C[C@]12C=CC(=O)C=C1CC[C@@H]1[C@@H]2C(=O)C[C@@]2(C)[C@H]1CC[C@]2(O)C(=O)CO", "note": "[prednisone]", "values": [{"measurement": "Bioavailability", "setting": "[1]", "result": "50-80%"}]}
{"smiles": "Sc1ncnc2nc[nH]c12", "note": "[mercaptopurine]", "values": [{"measurement": "Patients in whom adverse effects make it necessary to withdraw treatment", "setting": "patients", "result": "15-30%"}]}
{"smiles": "CCCC1O[C@@H]2C[C@H]3[C@@H]4CCC5=CC(=O)C=C[C@]5(C)[C@H]4[C@@H](O)C[C@]3(C)[C@]2(C(=O)CO)O1", "note": "(stereo partly drawn) [budesonide]", "values": [{"measurement": "Bioavailability", "setting": "[1]", "result": "50-80%"}]}
